According to US5691196:
For some assays here: No signal at the amounts used counts as a negative. For some assays here: A weaker result is weaker than the reference pair of the same experiment. For some assays here: Where cells or extracts were used, other partners may take part. For some assays here: Protein sequences can lack the tags named with them. For some assays here: The exact form of at least one protein or probe is not confirmed.

Protein sequences, listed by entry. Tags and fused reporters are not part of them. Lines headed by an entry give the natural chain unless they say otherwise; changes in a name come on top.
UniProt P19793: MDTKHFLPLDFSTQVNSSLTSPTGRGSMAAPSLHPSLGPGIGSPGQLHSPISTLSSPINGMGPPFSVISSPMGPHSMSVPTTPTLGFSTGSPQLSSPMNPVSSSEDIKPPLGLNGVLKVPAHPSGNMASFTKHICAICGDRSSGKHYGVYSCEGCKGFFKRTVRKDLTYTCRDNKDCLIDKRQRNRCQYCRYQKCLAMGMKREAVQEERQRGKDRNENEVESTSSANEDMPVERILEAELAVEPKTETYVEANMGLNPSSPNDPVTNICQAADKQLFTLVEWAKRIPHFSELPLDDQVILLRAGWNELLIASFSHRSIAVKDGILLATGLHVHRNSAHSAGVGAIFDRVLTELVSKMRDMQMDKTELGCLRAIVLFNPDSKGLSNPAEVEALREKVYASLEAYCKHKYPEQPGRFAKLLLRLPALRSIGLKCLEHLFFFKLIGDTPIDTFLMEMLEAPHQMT

Key:
[1] = test system: RXRalpha/RARalpha heterodimer; experiment: competition with a labelled probe; settings: protein in an extract; protein details: yeast RXRalpha mixed with CMT cell RARalpha; variant of apoAI site A (oligo A)
[2] = test system: RXRalpha/ARP-1 deltaA1 heterodimer ARP-1 amino-terminal domain deleted; experiment: competition with a labelled probe; settings: protein in an extract; protein details: yeast RXRalpha mixed with CMT cell ARPdeltaA1; variant of apoAI site A (oligo A)
[3] = test system: ARP-1 deltaA1 amino-terminal domain deleted; experiment: competition with a labelled probe; settings: protein in a lysate after overexpression; variant of apoAI site A (oligo A)
RXRalpha [4] = target: RXRalpha (UniProt P19793); experiment: competition with a labelled probe; settings: 100-fold excess does not compete; 9-cis-RA; protein in an extract; protein details: ubiquitin-fusion expression in yeast (YEpRXRalpha); variant of apoAI site A (oligo A)
RXRalpha [5] = target: RXRalpha (UniProt P19793); experiment: activity in cells; settings: protein in cells, protein details: pMT2-RXRalpha, CV-1 cells
[6] = test system: RXRalpha/RARalpha heterodimer; experiment: EMSA; settings: at least 50-fold excess oligo A needed to compete; protein in an extract; protein details: yeast RXRalpha mixed with CMT cell RARalpha; label: 32P
ARP-1 = target: T1, ARP-1 (UniProt P24468); experiment: EMSA; settings: with control yeast extract; protein in a lysate after overexpression; protein details: pMT2-ARP-1, CMT cells; label: 32P
T1 sequence (looked up, limits assumed): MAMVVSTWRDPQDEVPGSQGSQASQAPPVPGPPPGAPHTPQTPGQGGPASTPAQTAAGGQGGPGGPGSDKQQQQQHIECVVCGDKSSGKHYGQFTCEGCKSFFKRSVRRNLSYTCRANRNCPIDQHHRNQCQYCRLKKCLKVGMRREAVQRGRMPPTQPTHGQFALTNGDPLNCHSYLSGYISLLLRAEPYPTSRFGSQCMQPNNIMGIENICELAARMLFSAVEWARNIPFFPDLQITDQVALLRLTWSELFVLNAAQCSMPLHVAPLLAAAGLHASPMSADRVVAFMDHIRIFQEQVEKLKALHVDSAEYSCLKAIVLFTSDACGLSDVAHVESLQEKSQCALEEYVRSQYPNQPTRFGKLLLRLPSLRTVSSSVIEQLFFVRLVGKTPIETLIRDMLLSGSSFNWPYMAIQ

[7] = test system: RXRalpha/ARP-1 deltaA1 heterodimer ARP-1 amino-terminal domain deleted; experiment: EMSA; settings: at least 50-fold excess oligo A needed to compete; protein in an extract; protein details: yeast RXRalpha mixed with CMT cell ARPdeltaA1; label: 32P
[8] = test system: ARP-1 deltaA6 carboxy-terminal domain deleted; experiment: EMSA; settings: no heterodimer with RXRalpha; protein in a lysate after overexpression; label: 32P
[9] = test system: ARP-1 deltaA1 amino-terminal domain deleted; experiment: EMSA; settings: protein in a lysate after overexpression; label: 32P
[10] = test system: ARP-1 deltaA7 amino- and carboxy-terminal domains deleted; experiment: EMSA; settings: no heterodimer with RXRalpha; protein in a lysate after overexpression; label: 32P
RARalpha = target: T2, RARalpha (UniProt P10276); experiment: EMSA; settings: with control yeast extract; complex not formed; protein in a lysate after overexpression; protein details: pMT2-RARalpha, CMT cells; label: 32P
T2 sequence (looked up, limits assumed): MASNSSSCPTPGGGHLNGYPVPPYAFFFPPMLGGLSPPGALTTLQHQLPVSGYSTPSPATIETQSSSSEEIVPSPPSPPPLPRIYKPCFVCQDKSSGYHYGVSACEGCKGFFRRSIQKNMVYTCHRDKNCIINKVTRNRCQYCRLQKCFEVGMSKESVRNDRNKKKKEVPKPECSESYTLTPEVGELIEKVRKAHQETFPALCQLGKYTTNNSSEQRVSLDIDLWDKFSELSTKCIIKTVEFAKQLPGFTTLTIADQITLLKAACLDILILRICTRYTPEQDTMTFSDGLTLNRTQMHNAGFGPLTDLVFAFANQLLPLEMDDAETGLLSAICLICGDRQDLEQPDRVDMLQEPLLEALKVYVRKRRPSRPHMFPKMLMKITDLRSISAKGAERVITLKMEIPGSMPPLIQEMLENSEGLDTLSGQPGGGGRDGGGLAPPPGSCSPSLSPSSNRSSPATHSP

RXRalpha [11] = target: RXRalpha (UniProt P19793); experiment: EMSA; settings: protein in an extract, protein details: ubiquitin-fusion expression in yeast (YEpRXRalpha), label: 32P
[12] = responsiveness abolished, variant of site A5', only the site is given
[13] = mostly endogenous RA receptors, variant of site A5', only the site is given

“ACTGAACCCGGGACCCCTGCCCT (double strand) [oligo Amut]”: no binding [1]; no binding [2]; no binding [3]. The binding result (RXRalpha [4]) was “no binding” and the “activity on this sequence” value (RXRalpha [5]; RA, variant of apoAI site A (oligo A)) was “not active”.

“ACTGAACCCTTGAACCCTG (double strand) [M7]” was tested, and the “activity on this sequence” value (RXRalpha [5]; responds poorly, variant of site A5', only the site is given) was “less active”.

“ACTGAACCCTTGACCCCTGCCCT (double strand) [apoAI site A (oligo A)]”: binds [6]; binds (ARP-1); binds [7]. “ACTGAACCCTTGACCCCTGCCCT (double strand) [apoAI site A (oligo A)]”: binds [8]; binds [9]; binds [10]. “ACTGAACCCTTGACCCCTGCCCT (double strand) [apoAI site A (oligo A)]”: no binding (RARalpha); binds (RXRalpha [11]; homodimer with 5e-5 M 9-cis-RA, less efficient than heterodimers); no binding (RXRalpha [11]; no 9-cis-RA, no partner).

For ACTGAACTGAACCCTG (double strand) [M8], the “activity on this sequence” value (RXRalpha [5]; [12]) was “not active”.

Sequence “ACTGAACTTTTGACCCCTG (double strand) [M3]” has an activity on this sequence (RXRalpha [5]; [13]) of 3 fold.

ACTGACCTGACCCCTG (double strand) [M5] was tested, and the “activity on this sequence” value (RXRalpha [5]; [12]) was “not active”.

“ACTGACCTTTTGACCCCTG (double strand) [M6]” showed an activity on this sequence (RXRalpha [5]; [13]) of 3.1 fold.

“CTTGACCCCTGCCCTGCAG (double strand) [site A3']” was tested, and the “activity on this sequence” value (RXRalpha [5]; not efficiently transactivated with RA, variant of apoAI site A (oligo A)) was “not active”.
